{
  "source": "patent US5874308A",
  "about": "“Compositions and methods for modulating cell proliferation using growth factor-polysaccharide binding fusion proteins” (priority 1996, dated 1999)",
  "molecules": {"B1": {"name": "SLF-CBD: fusion protein: extracellular domain of murine steel factor linked to the cellulose binding domain of Cellulomonas fimi exoglucanase Cex (protein)", "chain": "KEICGNPVTDNVKDITKLVANLPNDYMITLNYVAGMDVLPSHCWLRDMVIQLSLSLTTLLDKFSNISEGLSNYSIIDKLGKIVDDLVLCMEENAPKNIKESPKRPETRSFTPEEFFSIFNRSIDAFKDFMVASDTSDCVLSSTLGPEKDSRVSVTKPFMLPPVAASSLRNDSSSSNRKAAKAPEDSGLQPTPTPTTPTPTPTTPTPTPTSGPAGCQVLWGVNQWNTGFTANVTVKNTSSAPVDGWTLTFSFPSGQQVTQAWSSTVTQSGSAVTVRNAPWNGSIPAGGTAQFGFNGSHTGTNAAPTAFSLNGTPCTVG"}},
  "system": "SLF dependent bone marrow cell line B6SUtA1",
  "test": "MTT proliferation assay of SLF-CBD in solution or bound to BMCC",
  "format": "cell-based",
  "protocol": "Samples of purified SLF-CBD were diluted in H-SFM. […] In experiments where BMCC was used, 50 μl of a BMCC suspension in H-SFM was added to each well, and in experiments where no BMCC was used 50 μl of H-SFM alone was added.\nStatistical analysis of data was carried out with regression curve fitting in two iterations using non-linear regression analysis from the GraFit version 3.0 statistical analysis program (Erithacus Software Ltd., Staines, U.K.).",
  "key": {"[1]": {"settings": "BMCC constant at 1 μg/ml, about 2000 pM SLF-CBD"}},
  "data": [
    {"molecule": "B1", "values": [
      {"measurement": "density of SLF-CBD on the BMCC surface at maximal effect of BMCC", "setting": "130 pM with 1 μg/ml and 1500 pM with 44 μg/ml BMCC, 1.22 cm^2 per μg BMCC", "value": "about 4×10^10 molecules/cm^2"},
      {"measurement": "SLF-CBD density at maximum stimulatory activity", "setting": "[1]", "value": "7×10^11 molecules per cm^2"},
      {"measurement": "SLF-CBD density relative to estimated receptor density on the cell surface", "setting": "[1]", "value": "about 60 times"},
      {"measurement": "relative density of SLF-CBD vs c-kit receptor density on cell membrane at maximal effect of matrix", "setting": "receptor density estimate 1.1×10^10 per cm^2", "value": "four times"}
    ]}
  ]
}
